For this data set, the target named is DST (HST1) wild type (UniProt A0A0E0GUL5). The experiment in a line: EMSA. The following applies: 0.5 ug protein, 2 ng labeled oligo, 5 ug poly(dI-dC), 20 ul, 20 ul reactions, 2 ng labeled DNA, pH and temperature not given (as in Lai et al., 2011), recombinant protein, label: 32P. For orientation: In EMSA bound probe runs differently from free probe, usually more slowly.

For at least one entry, the source does not settle the construct or the ends of the probe.

Turning to “GGCTATACTAACCGTGCTGCTAGCCATTAGGCCCAAGTTAGT (double strand) [DST-binding sequence oligo]”, the binding result was “binds”.
